Results on one substance are retold here after publication PMC5816632.

The chains behind the UniProt entries cited, without tags or fusion partners. Where a name states a change or a piece, a line headed by the entry shows the natural chain unless it says otherwise.
UniProt Q13153: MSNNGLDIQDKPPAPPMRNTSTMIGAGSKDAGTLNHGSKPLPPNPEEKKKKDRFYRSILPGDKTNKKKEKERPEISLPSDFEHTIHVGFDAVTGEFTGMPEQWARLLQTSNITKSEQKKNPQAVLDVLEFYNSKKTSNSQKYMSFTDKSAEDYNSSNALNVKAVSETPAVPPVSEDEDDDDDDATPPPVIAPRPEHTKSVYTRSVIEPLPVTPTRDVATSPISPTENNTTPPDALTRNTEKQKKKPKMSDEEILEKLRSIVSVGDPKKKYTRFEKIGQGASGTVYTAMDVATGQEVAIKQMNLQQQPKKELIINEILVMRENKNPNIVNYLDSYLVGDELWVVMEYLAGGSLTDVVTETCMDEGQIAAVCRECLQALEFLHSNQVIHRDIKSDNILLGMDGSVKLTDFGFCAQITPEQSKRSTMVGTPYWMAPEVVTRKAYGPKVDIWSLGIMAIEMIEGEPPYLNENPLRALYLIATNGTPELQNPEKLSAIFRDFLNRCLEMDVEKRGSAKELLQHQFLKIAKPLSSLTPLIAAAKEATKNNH
UniProt P60953: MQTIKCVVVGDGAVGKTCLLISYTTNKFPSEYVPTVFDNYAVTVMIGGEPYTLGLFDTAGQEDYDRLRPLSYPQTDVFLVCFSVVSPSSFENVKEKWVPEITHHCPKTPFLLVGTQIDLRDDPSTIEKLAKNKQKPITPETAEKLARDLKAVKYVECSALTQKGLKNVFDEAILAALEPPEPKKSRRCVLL

Results are given in words; binding and its absence hold for the method and conditions named. Binding seen in cells or lysates may run through a third protein. Binding can be weak; no strength is given.

For this assay, the target named is PAK1-RHO binding domain (RBD) fused to GST (UniProt Q13153). Briefly: pull-down; bacterial lysate containing GST-PAK1-RBD as bait; total Jurkat cell lysates (wild-type, non-target shRNA, ITK knockdown) as prey; immunoblot with CDC42 and RAC1 specific antibodies. In general terms: In western blotting, separated proteins are transferred to a membrane and probed.

Turning to “CDC42, GTP-bound (activated form) (from UniProt P60953 1-191)”, the binding entry was “binds”.
